# From patent US20160312218A1, “SYSTEM FOR CO-DELIVERY OF POLYNUCLEOTIDES AND DRUGS INTO PROTEASE-EXPRESSING CELLS” (NORTHEASTERN UNIVERSITY, priority 2013, published 2016)
# System: siRNA
# Assay: Gel retardation assay (siRNA complexation)
# Format: binding
# Conditions: agarose gel, N/P 10, 20 and 40
row,Substance,nitrogen to phosphate ratio (N/P) needed to completely condense free siRNA
1,"PEI (1800 Da)-1,2-dioleoyl-sn-glycero-3-phosphoethanolamine (DOPE) [PEI-PE, reference compound]",< 10
2,"polyethylene glycol-peptide-polyethylenimine-1,2-dioleoyl-snglycero-3-phosphoethanolamine (GPLGIAGQ) [PEG-pp-PEI-PE]",40
